PubChem BioAssay AID1259254, NCATS | 2017

Assay: 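Finding genes that stop cells copying their DNA twice in one cycle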 (primary screen)
Cells: human HCT116 colorectal cancer cells
Reagent: single siRNA against human genes
Time to read-out: 3 days
Measurement: 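Nuclei stained with Hoechst and imaged; cell-cycle phase assigned by DNA content; G2 share scaled per plate, non-targeting siRNA 0%, GMNN siRNA 100%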
Reading the numbers: G2 robust z-score and G2 cells, % of GMNN control: higher = more G2 cells, more excess DNA replication
Hit rule: 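An siRNA counts as active if its G2 robust z-score lies at least 5 MADs above the screen median; here such calls match roughly 38% of GMNN control or more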
The whole screen tested about 59,000 reagents; this is an unselected part. About 1,550 of all reagents (2.6%) count as active. 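G2 share is only a proxy for re-replication; each gene was hit by three separate siRNAs, and active genes were retested.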 Reagents against one gene are numbered here. Not all columns of the deposit are shown. Reagent sequences are not shown. Not stated in the record: the amount of reagent.

no.	target gene	reagent	G2 robust z-score	G2 cells, % of GMNN control	call
1	SLC16A14	1	0.856	8.99	inactive
2	SLC16A14	2	-0.506	-0.589	inactive
3	SLC16A14	3	0.0249	3.14	inactive
4	PAPLN	1	2.63	21.4	inactive
5	PAPLN	2	0.0467	3.3	inactive
6	PAPLN	3	0.132	3.9	inactive
7	SHCBP1	1	0.718	8.02	inactive
8	SHCBP1	2	-0.409	0.0925	inactive
9	SHCBP1	3	-1.46	-7.3	inactive
10	LZTR1	1	-0.421	0.00391	inactive
11	LZTR1	2	-0.73	-2.17	inactive
12	LZTR1	3	0.554	6.86	inactive
13	CDC37L1	1	0.176	4.21	inactive
14	CDC37L1	2	-0.0549	2.58	inactive
15	CDC37L1	3	0.784	8.48	inactive
16	ZNF396	1	-0.248	1.22	inactive
17	ZNF396	2	0.132	3.9	inactive
18	ZNF396	3	2.13	18	inactive
19	COL4A4	1	-0.37	0.363	inactive
20	COL4A4	2	2.26	18.9	inactive
21	COL4A4	3	-0.235	1.32	inactive
22	CADM2	1	-1.03	-4.26	inactive
23	CADM2	2	1.15	11.1	inactive
24	CADM2	3	6.96	51.9	active
25	CISD2	1	0.507	6.53	inactive
26	CISD2	2	2.96	23.8	inactive
27	CISD2	3	-0.102	2.25	inactive
28	GID8	1	-0.0805	2.4	inactive
29	GID8	2	0.589	7.11	inactive
30	GID8	3	-0.122	2.11	inactive
31	MTA2	1	-0.346	0.535	inactive
32	MTA2	2	-0.561	-0.976	inactive
33	MTA2	3	-0.673	-1.77	inactive
34	TSPYL1	1	1.7	14.9	inactive
35	TSPYL1	2	-1.13	-4.96	inactive
36	TSPYL1	3	-0.223	1.4	inactive
37	C5orf24	1	-0.671	-1.76	inactive
38	C5orf24	2	0.162	4.11	inactive
39	C5orf24	3	-0.111	2.19	inactive
40	ZNF775	1	-0.38	0.29	inactive
41	ZNF775	2	1.39	12.7	inactive
42	ZNF775	3	-0.219	1.42	inactive
43	TEDC2	1	-0.601	-1.26	inactive
44	TEDC2	2	0.66	7.61	inactive
45	TEDC2	3	-0.938	-3.64	inactive
46	GOLGA7B	1	-1.1	-4.8	inactive
47	GOLGA7B	2	-0.621	-1.4	inactive
48	GOLGA7B	3	-0.345	0.541	inactive
49	SHANK3	1	-0.44	-0.127	inactive
50	SHANK3	2	0.192	4.32	inactive
51	SHANK3	3	-0.24	1.28	inactive
52	GPX3	1	-0.233	1.33	inactive
53	GPX3	2	-1.01	-4.14	inactive
54	GPX3	3	0.403	5.81	inactive
55	TFF1	1	2.91	23.5	inactive
56	TFF1	2	-0.0689	2.48	inactive
57	TFF1	3	-0.202	1.54	inactive
58	RPS23	1	4.73	36.2	inactive
59	RPS23	2	2.66	21.7	inactive
60	RPS23	3	3.48	27.5	inactive
61	ZBTB4	1	0.718	8.02	inactive
62	ZBTB4	2	1.63	14.5	inactive
63	ZBTB4	3	-1.23	-5.69	inactive
64	TEX26	1	0.727	8.08	inactive
65	TEX26	2	-0.124	2.1	inactive
66	TEX26	3	-0.425	-0.0228	inactive
67	CNN3	1	-0.158	1.86	inactive
68	CNN3	2	6.17	46.3	active
69	CNN3	3	-0.482	-0.421	inactive
